This experiment addresses NDRG1 (S330D) (UniProt Q92597). In words: affinity purification with mass spectrometry; NDRG1 (S330D) overexpressed in HUVECs; nuclear proteins precipitated with anti-His-Tag (IgG as control), SDS-PAGE, Coomassie, mass spectrometry.

Chains of the proteins cited; added tags and fusions are not shown. Lines headed by an entry give the natural chain unless they say otherwise; changes in a name come on top.
UniProt Q92597: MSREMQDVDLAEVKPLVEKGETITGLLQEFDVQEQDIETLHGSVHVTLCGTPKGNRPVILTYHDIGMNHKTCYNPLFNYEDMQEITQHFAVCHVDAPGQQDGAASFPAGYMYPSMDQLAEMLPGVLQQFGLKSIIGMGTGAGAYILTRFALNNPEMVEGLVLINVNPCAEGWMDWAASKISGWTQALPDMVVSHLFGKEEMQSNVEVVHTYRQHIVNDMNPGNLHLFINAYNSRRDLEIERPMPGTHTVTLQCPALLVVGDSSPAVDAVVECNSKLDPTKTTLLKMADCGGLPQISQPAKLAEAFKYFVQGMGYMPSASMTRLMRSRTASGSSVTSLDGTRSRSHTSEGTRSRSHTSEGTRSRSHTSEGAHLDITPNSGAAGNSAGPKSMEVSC
UniProt P26599: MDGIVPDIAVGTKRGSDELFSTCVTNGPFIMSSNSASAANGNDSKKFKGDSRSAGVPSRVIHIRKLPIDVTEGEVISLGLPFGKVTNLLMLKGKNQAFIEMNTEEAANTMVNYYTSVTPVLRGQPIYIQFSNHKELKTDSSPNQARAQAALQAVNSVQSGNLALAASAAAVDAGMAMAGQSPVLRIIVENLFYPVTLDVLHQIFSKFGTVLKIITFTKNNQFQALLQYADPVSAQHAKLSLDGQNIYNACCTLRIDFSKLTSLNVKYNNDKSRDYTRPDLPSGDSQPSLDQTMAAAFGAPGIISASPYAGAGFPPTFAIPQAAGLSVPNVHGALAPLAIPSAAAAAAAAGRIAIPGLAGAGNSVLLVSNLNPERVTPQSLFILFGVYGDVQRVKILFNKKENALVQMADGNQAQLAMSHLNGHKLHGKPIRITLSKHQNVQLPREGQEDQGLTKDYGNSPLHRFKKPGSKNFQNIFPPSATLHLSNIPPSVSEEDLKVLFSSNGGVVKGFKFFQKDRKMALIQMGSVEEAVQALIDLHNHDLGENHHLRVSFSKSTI

We go through one substance from publication PMC11671384.

Results are given in words; binding and its absence hold for the method and conditions named. Binding seen in cells or lysates may run through a third protein. A yes stands for co-enrichment or nearness to the bait. Other partners may have been found.

As for “PTBP1 (endogenous, HUVEC) (from UniProt P26599 1-557)”, the binding entry is “binds”.
